# Library screen at single concentrations

Measurements from “University of Dundee, Small-Polar-MMV Screening Library” (2021), ChEMBL document CHEMBL3988442.

Values are the deposited “Percent Effect”, in %.
How 0% and 100% were set is not recorded. Most values in the screen are low, and negative values occur.
This is an unselected part of the compounds tested.
Two or more numbers in one place are separate tests of the same structure; such repeats can differ widely.

Mtb glucose medium: 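Growth of Mycobacterium tuberculosis over 3 days (7H9 medium with glucose and tyloxapol); the read-out is not stated. Tested at 50 µM. Direction is inferred from retests: higher values go with more growth inhibition. Size under these conditions: about 69,000 compounds, about 760 of them at 50% or above in at least one test.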
Mtb cholesterol medium: 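Growth of Mycobacterium tuberculosis over 4 days (cholesterol / DPPC medium with tyloxapol); the read-out is not stated. Tested at 50 µM. The record gives no direction; compounds that gave an IC50 in retests scored well above the rest, so higher reads as more growth inhibition. About 69,000 compounds were tested under these conditions; 0.54% (about 370) showed 50% or more at least once.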

- CS(=O)(=O)NCc1cc(-c2cc(F)cc(F)c2)nc(N2CCOCC2)n1 : Mtb glucose medium: 8.031%; Mtb cholesterol medium: -8.688%
- Cc1n[nH]c2c1C(c1ccc(O)cc1)SCC(=O)N2 (centres unmarked) : Mtb glucose medium: -25.53%; Mtb cholesterol medium: -29.03%
- Cc1csc2c(=O)n3c(nc12)CCN(C(=O)c1cccnc1)CC3 : Mtb glucose medium: 25.15%; Mtb cholesterol medium: -10.21%
- Cc1nc(Cn2c3c(ccc2=O)CC(NC(C)C)CC3)cs1.O=C(O)C(F)(F)F.O=C(O)C(F)(F)F (centres unmarked) : Mtb glucose medium: -5.71%; Mtb cholesterol medium: -16.12%
- COCCN1CCCC1c1ccnc(-c2ccccc2)n1 (centres unmarked) : Mtb glucose medium: 27.69%; Mtb cholesterol medium: 10.76%
- COc1ccccc1C1=NOC(CC2(C(=O)NCCO)CCOCC2)C1 (centres unmarked) : Mtb glucose medium: -11.52%; Mtb cholesterol medium: -45.07%
- Cc1nnc(NC(=O)NCc2cc(F)cc(F)c2)s1 : Mtb glucose medium: 0.32%; Mtb cholesterol medium: -23.96%
- CCC(C)N(Cc1cccnc1)C(=O)c1ccc(F)c(O)c1 (centres unmarked) : Mtb glucose medium: -8.401% and 32.06%; Mtb cholesterol medium: -40.34%
- O=C1CC2(CCN(Cc3ccc(Cl)s3)C2)C(=O)N1 (centres unmarked) : Mtb glucose medium: 21.65%; Mtb cholesterol medium: 14.22%
- O=C(O)C(F)(F)F.[H][C@@]12CCN(c3cnccn3)C[C@]1([H])CN(C(=O)C1CCCC1)C2 : Mtb glucose medium: 13.93%; Mtb cholesterol medium: -10.26% and -6.756%
- Cc1ncc(S(C)(=O)=O)c(C2CCCNC2)n1 (centres unmarked) : Mtb glucose medium: -10.33%; Mtb cholesterol medium: -35.1%
- CN1CCc2c(C#N)c(NCCN3CCOCC3)n3cnnc3c2C1 : Mtb glucose medium: 10.92%; Mtb cholesterol medium: -1.158%
- Cc1noc(C)c1CN1CCCC2(CCN(C(=O)CC3CC3)C2)C1 (centres unmarked) : Mtb glucose medium: -19.38%; Mtb cholesterol medium: -6.914%
- CCc1nc(C(=O)N2CCN(CCc3ccc(OC)cc3)CC2)c[nH]1 : Mtb glucose medium: 15.26%; Mtb cholesterol medium: 13.25%
- COc1ccc(C(=O)N2CCOc3ccncc32)cc1 : Mtb glucose medium: -9.78%; Mtb cholesterol medium: -5.863% and -24.05%
- Cc1cc(C)c(CNC(=O)NC(C)c2ccc3c(c2)CCC3)c(=O)[nH]1 (centres unmarked) : Mtb glucose medium: -0.3962% and -56.85%; Mtb cholesterol medium: 0.96%
- CC(=O)N1CCc2nc(C3CCN(c4ncccn4)C3)ncc2C1 (centres unmarked) : Mtb glucose medium: -2.441%; Mtb cholesterol medium: -26.56%
- CC(C)c1nc(C2CCCN2Cc2cc(=O)n(C)c(=O)n2C)no1 (centres unmarked) : Mtb glucose medium: 11.07%; Mtb cholesterol medium: 11.77%
- Cn1nccc1CCNC(=O)[C@H]1CNC[C@H](C(=O)N2CCCC2)C1 : Mtb glucose medium: -10.66%; Mtb cholesterol medium: 17.47%
- CCCc1cc(C(=O)N2CCCC(n3ccnc3C)C2)[nH]n1 (centres unmarked) : Mtb glucose medium: 25.56%; Mtb cholesterol medium: 18.76%
- CC(C)(C)C(O)CN1CCN(CC(=O)NC(C2CC2)C2CC2)CC1 (centres unmarked) : Mtb glucose medium: -4.869%; Mtb cholesterol medium: -0.2129%
- CN1CCC(n2nc(CC3CC3)nc2-c2ccc(F)cc2Cl)CC1 : Mtb glucose medium: -1.962% and -11.04%; Mtb cholesterol medium: 7.713%
- COCCC(Cc1cccc(Br)c1)C(=O)N(C)C (centres unmarked) : Mtb glucose medium: -4.789% and -2.734%; Mtb cholesterol medium: 4.833%
- CC(C)NC(=O)CCN1CCC(C(=O)c2cc(F)ccc2F)CC1 : Mtb glucose medium: -1.33%; Mtb cholesterol medium: 2.787%
- O=C(CC1CC1)N1CCC2(CC1)CN(Cc1cccnc1)C(=O)CO2.O=C(O)C(F)(F)F : Mtb glucose medium: 2.349%; Mtb cholesterol medium: -2.288% and -8.052%
- CN(C)C(=O)C1CN(Cc2nccs2)CCN(S(C)(=O)=O)C1 (centres unmarked) : Mtb glucose medium: -5.383%; Mtb cholesterol medium: -8.923%
- [H][C@@]12OCCC[C@]1([H])N(S(C)(=O)=O)C[C@H]2NC(=O)c1ccno1 : Mtb glucose medium: 7.399%; Mtb cholesterol medium: 12.65%
- OCCn1cc(CN2CCN(CCOc3ccccc3F)CC2)cn1 : Mtb glucose medium: -13.93%; Mtb cholesterol medium: -1.09%
- Cc1nc(C)n(CC2CCCCN2CCC(=O)Nc2cc(C)on2)n1 (centres unmarked) : Mtb glucose medium: 11.82%; Mtb cholesterol medium: -9.094%
- CN(C)CCC(Nc1nc(N)nc2c1CCNCC2)c1ccccc1 (centres unmarked) : Mtb glucose medium: 5.752%; Mtb cholesterol medium: 30.3%
- COCCNC(=O)Cn1c(C)cc2nc(SC)n(CC(C)C)c(=O)c21 : Mtb glucose medium: -40.13%; Mtb cholesterol medium: 1.137%
- COc1nn(C)c2c1CCCN(C(=O)c1ccc[nH]1)C2 : Mtb glucose medium: -4.354%; Mtb cholesterol medium: -18.51%
- Cc1nn(C)c(C)c1NC(=O)CNC(c1ccccc1)C1CCCC1 (centres unmarked) : Mtb glucose medium: 9.744%; Mtb cholesterol medium: 8.65%
- O=C(O)C1CCN(c2nc3c(-c4ccccc4F)csc3c(=O)[nH]2)CC1 : Mtb glucose medium: -1.011% and -2.725%; Mtb cholesterol medium: -4.469%
- Cn1nc(C(=O)N2CCOCC2)cc1C(=O)Nc1cc(Cl)cc(Cl)c1 : Mtb glucose medium: 26.52%; Mtb cholesterol medium: 21.68%
- CN(C)C1CCN(C(=O)CCc2cc(Br)cs2)CC1 : Mtb glucose medium: 31.21%; Mtb cholesterol medium: 0.3487% and 5.141%
- CC(C)CN1CCn2nc(CNc3ncnc4[nH]cnc34)cc2C1 : Mtb glucose medium: -0.3455% and -39.16%; Mtb cholesterol medium: -28.39%
- CCn1c(N)nc2cc(C(=O)N3CCN(CC(F)(F)F)CC3)cnc21 : Mtb glucose medium: 1.362%; Mtb cholesterol medium: -13.88%
- Cc1nc(N(C)C/C=C/c2ccccc2)c2cnn(C)c2n1 : Mtb glucose medium: 36.96%; Mtb cholesterol medium: 38.59% and 34.9%
- CCCc1nnc(NC2CCN(Cc3ccc(F)c(F)c3)CC2)o1 : Mtb glucose medium: 35.49%; Mtb cholesterol medium: 7.386%

The first 3 entries again:

- CS(=O)(=O)NCc1cc(-c2cc(F)cc(F)c2)nc(N2CCOCC2)n1 : Mtb glucose medium: 8.031%; Mtb cholesterol medium: -8.688%
- Cc1n[nH]c2c1C(c1ccc(O)cc1)SCC(=O)N2 (centres unmarked) : Mtb glucose medium: -25.53%; Mtb cholesterol medium: -29.03%
- Cc1csc2c(=O)n3c(nc12)CCN(C(=O)c1cccnc1)CC3 : Mtb glucose medium: 25.15%; Mtb cholesterol medium: -10.21%